Assay results taken from PMC11665234.
No constants are given. Whether binding was seen depends on the method and setting. Binding seen in cells or lysates may run through a third protein. Some binding calls cover weakened binding; strength is not graded here.

Target: T1, Tripartite motif 13 (human (endogenous in NSCLC cells)) (UniProt O60858)
T1 sequence: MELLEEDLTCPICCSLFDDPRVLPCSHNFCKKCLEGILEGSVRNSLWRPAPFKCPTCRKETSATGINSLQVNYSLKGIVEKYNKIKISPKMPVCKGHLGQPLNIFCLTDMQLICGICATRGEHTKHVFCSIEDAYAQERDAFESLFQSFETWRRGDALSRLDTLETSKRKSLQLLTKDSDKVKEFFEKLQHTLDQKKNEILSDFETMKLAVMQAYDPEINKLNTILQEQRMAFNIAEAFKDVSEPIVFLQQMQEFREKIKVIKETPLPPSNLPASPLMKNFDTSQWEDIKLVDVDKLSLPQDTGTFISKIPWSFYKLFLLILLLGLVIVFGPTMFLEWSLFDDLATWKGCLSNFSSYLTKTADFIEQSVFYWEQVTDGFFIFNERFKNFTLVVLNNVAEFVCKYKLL
Assay: co-IP; cell lysate (150 mmol/L NaCl, 50 mmol/L Tris-HCl pH 7.6, 1% NP-40, 1 mmol/L EDTA) incubated with TRIM13 antibody or control IgG at 4 C, protein A/G plus agarose beads overnight at 4 C, three washes; Western blot for ANXA8

B1: Annexin A8 (protein, UniProt P13928 1-327)
chain: MAWWKSWIEQEGVTVKSSSHFNPDPDAETLYKAMKGIGTNEQAIIDVLTKRSNTQRQQIAKSFKAQFGKDLTETLKSELSGKFERLIVALMYPPYRYEAKELHDAMKGLGTKEGVIIEILASRTKNQLREIMKAYEEDYGSSLEEDIQADTSGYLERILVCLLQGSRDDVSSFVDPGLALQDAQDLYAAGEKIRGTDEMKFITILCTRSATHLLRVFEEYEKIANKSIEDSIKSETHGSLEEAMLTVVKCTQNLHSYFAERLYYAMKGAGTRDGTLIRNIVSRSEIDLNLIKCHFKKMYGKTLSSMIMEDTSGDYKNALLSLVGSDP
B1 was tested. Which binding did it give?
Its binding is “binds”.
